The whole screen tested about 53,000 sequences, of which about 3,700 (7%) were called active.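 The calls were made as follows: active = gene knockdowns whose robust z-score for IL-1 alpha signal is at least 2 or at most -2, so actives lie on both sides; inactive = the rest.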 This is one part of the list.
Test: Components of the Cytosolic LPS Sensing Pathway: Gene Identification via Genome-wide siRNA Screen;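 also: robust z of the log signal after scaling to non-targeting control siRNA wells of the plate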
Conditions: RAW264.7 macrophages, IL-1a HTRF, actives lie on both sides, screened at 100 nM (by protocol), cells primed 5 h with Pam3CSK4 first
In short: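 Supernatant IL-1a by HTRF from RAW264.7 cells primed with Pam3CSK4 (5 hours) and transfected with LipidA (24 hour) after 48h siRNA knockdown at 100 nM; cell viability checked with CellTiter-Glo.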
In the case of GCUCCUGUUUAAGCAUAUGTT against Nalcn, the z-score is reported as inactive: 0.98.
With GGUAACUGUCCAGAAUCAGTT against Psapl1 the z-score was inactive: 0.0896.
For CGGCUUACCGUAUUCAUCGTT against Dhx32, the z-score was inactive: 0.69.
With GGAAAAUAGUGGAAGCCUGTT against Atg3 the z-score was inactive: -0.371.
For GACAAGAACCCGGAUAAUATT against Dnajb2, the z-score was inactive: -0.229.
In the case of AGGUCAAAAGAAGCCGGAATT against Bud31, the z-score is reported as inactive: 0.559.
With CGGUAUCACGGUUAUCCUUTT against Olfr215 the z-score was inactive: 0.932.
With CCUUGGCCAAUCUCCACAATT against Ptpmt1 the z-score was inactive: -0.485.
In the case of GGACAUUGGUCCAAAGAGUTT against Rbm4b, the z-score is reported as inactive: -0.939.
With GGAUCUUGAAGACCAAAAATT against Kazn the z-score was active: -2.14.
With CCUUUAAAAGCAAUGACGGTT against Iffo1 the z-score was inactive: -0.733.
With GGGAGUGCCCUCCUAAUAGTT against Ofd1 the z-score was inactive: -1.21.
In the case of GGAGCCUUUAAUCUCAUUATT against Wbp1, the z-score is reported as inactive: -0.463.
In the case of GCUGGGCUUCAACGAUUACTT against Efna4, the z-score is reported as inactive: 1.3.
In the case of GCUCUACAUCGAAUUGCUGTT against Lig4, the z-score is reported as active: 4.14.
For CCAGCAUAGAGUACCAGUGTT against Unc13d, the z-score was inactive: 1.
With GGAUUACCUUUUGUGUGACTT against Capzb the z-score was inactive: -0.776.
In the case of GGUGCUUCUGGAAAAGUUGTT against Far1, the z-score is reported as inactive: 0.412.
In the case of GGCUAAUUCUCAAAGAGAUTT against Dnttip2, the z-score is reported as inactive: -1.87.
For GCUAACGUACCUGUAACUUTT against Cnp, the z-score was inactive: -0.484.
For GCACUGCAACACUUGGUCCTT against Lcn12, the z-score was inactive: -0.99.
In the case of GGGAAAUAAGGAGCUUCCUTT against Ptgs2, the z-score is reported as inactive: 0.285.
For GCACUUUACGAGUAUGUAATT against Gnl1, the z-score was inactive: -1.74.
In the case of CGCUAUAACCAUUAGGUCUTT against Slc22a17, the z-score is reported as inactive: 0.742.
With GGAGUUGUUACUCUAUUUUTT against Pkd2l2 the z-score was inactive: -0.426.
With GGUAUUUGUAAAUUUGAGGTT against Atl1 the z-score was inactive: 0.309.
For GGCAUGAAUAGAAUUCUAGTT against Zfp367, the z-score was inactive: 1.29.
In the case of GCAAAUAUAGCAGUGAAAUTT against Nat1, the z-score is reported as inactive: 0.0532.
In the case of CCAACACCAUUCAAAUAGATT against Kcnh5, the z-score is reported as inactive: -0.427.
With GGUGAUCCUCAUCAUCAGUTT against Lmf1 the z-score was inactive: -0.297.
With GCUCAGAAUACAUGGAGCUTT against Btn1a1 the z-score was inactive: 0.957.
In the case of GGCUGUUUCUGUCAUGGUUTT against Nup133, the z-score is reported as inactive: 0.383.
In the case of GGUCAGACAGCAAUUCACATT against Gpr146, the z-score is reported as active: -2.7.
With GGAUGCCCUUGUCACAAAGTT against Fbl the z-score was inactive: 0.154.
For GCUAUGGAGGCUAUGGAUGTT against Krtap19-1, the z-score was inactive: -0.418.
For GGAAAGAGGAAAUCUUUAGTT against Furin, the z-score was active: 2.04.
With CCUUCCGUUUAGUUUUAUGTT against Prune2 the z-score was inactive: -0.386.
For GCUAGAAGCUUUCUAUUCUTT against Hsph1, the z-score was inactive: 1.68.
In the case of CCACCAGUAAGCAAAAGCGTT against Dtx1, the z-score is reported as inactive: -1.56.
For GGAAUUUUCAAGUUGAUGUTT against Kmo, the z-score was inactive: 0.578.
With GGCAUUGUUAGACUUGGCCTT against Slc7a7 the z-score was inactive: 0.0848.
With GGCAAAGUGAGUAAGACAGTT against Habp2 the z-score was inactive: 0.0806.
In the case of GUGUGUUUACUCAUUUCCATT against H2-T3, the z-score is reported as inactive: 0.926.
In the case of CGGUGUUAAAUCCAUGAGUTT against Hjurp, the z-score is reported as inactive: 0.689.
In the case of GGAACAAAUCACCUGCUGUTT against Ext2, the z-score is reported as inactive: -0.00439.
With GGUGAUGCACUAUUAAGAATT against B3galnt2 the z-score was inactive: -0.111.
In the case of GCCAAUUGGCAGUUCUGCATT against Cd6, the z-score is reported as inactive: -0.937.
In the case of GGUGGCUAAAAGCUCUUCCTT against Odc1, the z-score is reported as inactive: 1.9.
In the case of GGUCAGGUUCCUGACACAATT against Ppp6c, the z-score is reported as inactive: 1.67.
For GGAUAACUAUAUUCCAGUGTT against Rhobtb3, the z-score was inactive: 0.885.
In the case of GGGUCUUCUGACAAUGCUUTT against Zfyve19, the z-score is reported as inactive: -0.145.
For GGCUUUCUGGGAACAGAGATT against Epyc, the z-score was inactive: -0.211.
With GGAAGCAAAGGAAAAGACUTT against Mia2 the z-score was inactive: 0.832.
In the case of GGGAAAAUGCUUUGUUGGATT against Cnot9, the z-score is reported as inactive: -0.215.
With GAACUGAGGAGCCUCAAAUTT against Klra20 the z-score was inactive: 0.765.
For GGAGAUCAUCGACCCAGUGTT against Tuba4a, the z-score was inactive: -0.677.
With GACCAGAUCCAGAAAUCGGTT against Ccdc57 the z-score was inactive: -1.19.
With CAGGCAUCACUUCAGGGUGTT against Klra21 the z-score was inactive: 0.102.
In the case of GGGAUAGGCUUAAACUCAUTT against Pramel13, the z-score is reported as inactive: 1.13.
For CCUUUGAAAAGUUACCUCCTT against Klk1b16, the z-score was inactive: 1.9.
In the case of GGUAUAUUUGCCAAAUGAUTT against Klhdc1, the z-score is reported as inactive: -0.445.
With GGAGCGGAUGGAUGUUUGUTT against App the z-score was inactive: 1.05.
In the case of GCACUCUGUUCAGCUAAAATT against Tafa3, the z-score is reported as active: 2.16.
With CUUAGUGCUCUGGGAGCAGTT against Ms4a5 the z-score was inactive: 0.487.
For GGUAACCUGAUGGCUGAAATT against Zfp692, the z-score was active: 2.79.
With GGAAGGUGUUCGUAGAGAATT against Mad2l1 the z-score was inactive: 0.0941.
In the case of CGUGUCUUUAUUCAUCCCATT against C1s1, the z-score is reported as inactive: -0.822.
With GGAUCUGAGCCUUAACAAGTT against Lpcat3 the z-score was active: 2.92.
In the case of GGCCUGUCUCUCUUAUUAATT against Btg2, the z-score is reported as inactive: -0.28.

— PubChem BioAssay AID1508600 (Functional Genomics Laboratory (NCATS/FGL), 2020)
